Data on 27 compounds can be found in the supplement of paper PMC12542422.

Counter-ions that a name gives are not always drawn. ± gives the standard deviation of the averaged measurements. This is one part of the list. These are raw signals, not scaled to a control.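 HeLa cells imaged for ribosome-assembly readouts (ENP1 staining with or without export block, or inducible tagged ribosomal protein reporters); machine learning classified each cell's signal location against solvent (DMSO) controls. Hits exceeded the DMSO false-positive mean by five standard deviations, then were visually confirmed; three biological replicates.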

In test [1] the test system is HeLa K (ENP1 immunofluorescence, +LMB). In words: fraction of cells with nucleolar or nucleolar/nucleoplasmic ENP1 signal (MainHitrate); higher = more cells with nucleolar/nuclear readout signal (for ENP1 -LMB: less RNAPI inhibition; for +LMB ENP1 and RP reporters: stronger nuclear/nucleolar retention, i.e. ribosome biogenesis defect). To be noted: concentration: 1 µM; treatment time: 6 h; ENP1 +LMB; leptomycin B: 20 nM, last 1.5 h.

Test [2] has as its system HeLa K (ENP1 immunofluorescence, no LMB). The test is described as above. To be noted: concentration: 1 µM; treatment time: 6 h; ENP1 -LMB; leptomycin B: none.
The next test has as its system HeLa RPS2-YFP reporter. Put plainly: fraction of reporter-positive cells with nuclear (nucleolar or nucleolar/nucleoplasmic) RPS2-YFP (MainHitrate); higher = more cells with nucleolar/nuclear readout signal (for ENP1 -LMB: less RNAPI inhibition; for +LMB ENP1 and RP reporters: stronger nuclear/nucleolar retention, i.e. ribosome biogenesis defect). To be noted: concentration: 1 µM; treatment time: 6 h.

Another test concerns HeLa RPL29-GFP reporter. In words: fraction of reporter-positive cells with nuclear (nucleolar or nucleolar/nucleoplasmic) RPL29-GFP (MainHitrate); higher = more cells with nucleolar/nuclear readout signal (for ENP1 -LMB: less RNAPI inhibition; for +LMB ENP1 and RP reporters: stronger nuclear/nucleolar retention, i.e. ribosome biogenesis defect). To be noted: concentration: 1 µM; treatment time: 6 h.

As for `Cc1ccc2c(Cl)cc(Cl)c(O)c2n1` [Chlorquinaldol], the fraction in test [1] was 0.0785 ± 0.098; in test [2], 0.979 ± 0.036. The “fraction of reporter-positive cells with nuclear” value (“fraction … with nuclear” below) in the test with HeLa RPS2-YFP reporter was found to be 0.118 ± 0.092; in the test with HeLa RPL29-GFP reporter it was 0.21 ± 0.06.
The corresponding values for `Nc1[nH]cnc2ncnc1-2` [Adenine] are 0.0886 ± 0.11, 0.989 ± 0.018, 0.0985 ± 0.051 and 0.276 ± 0.1.
The corresponding values for `CC[N+](CC)(CC)CCOc1cccc(OCC[N+](CC)(CC)CC)c1OCC[N+](CC)(CC)CC` [Gallamine triethiodide (Flaxedil)] are 0.0803 ± 0.11, 0.9972 ± 0.0048, 0.0814 ± 0.034 and 0.225 ± 0.034.
On to `OCCN(CCO)c1nc(N2CCCCC2)c2nc(N(CCO)CCO)nc(N3CCCCC3)c2n1` [Dipyridamole (Persantine)], for which the fraction is 0.116 ± 0.17 in test [1] and 0.991 ± 0.016 in test [2]. Moreover, the “fraction … with nuclear” value in the test on HeLa RPS2-YFP reporter was found to be 0.143 ± 0.11; with HeLa RPL29-GFP reporter it was 0.236 ± 0.074.
The corresponding values for `O=C(O)Cc1ccccc1Nc1c(Cl)cccc1Cl` [Diclofenac] are 0.0906 ± 0.13, 0.992 ± 0.014, 0.0628 ± 0.042 and 0.199 ± 0.062.
The corresponding values for `CNCC[C@H](Oc1cccc2ccccc12)c1cccs1` [Duloxetine HCl (Cymbalta)] are 0.0407 ± 0.046, 0.9968 ± 0.0055, 0.103 ± 0.085 and 0.209 ± 0.061.
The corresponding values for `Cc1cccc(Nc2ccncc2S(=O)(=O)NC(=O)NC(C)C)c1` [Torsemide (Demadex)] are 0.0608 ± 0.05, 0.998 ± 0.0034, 0.0675 ± 0.031 and 0.199 ± 0.032.
As to `Oc1cc(O)c(Cl)cn1` [Gimeracil], the fraction stood at 0.161 ± 0.24 in test [1] and 0.996 ± 0.0069 in test [2]. The “fraction … with nuclear” value in the test on HeLa RPS2-YFP reporter stood at 0.0776 ± 0.018; with HeLa RPL29-GFP reporter, 0.213 ± 0.087.
For `CN1CC(=O)N2[C@H](c3ccc4c(c3)OCO4)c3[nH]c4ccccc4c3C[C@@H]2C1=O` [Tadalafil (Cialis)], the fraction came to 0.0669 ± 0.051 in test [1] and 0.9986 ± 0.0024 in test [2]. Further, the results for the “fraction … with nuclear” value in the test on HeLa RPS2-YFP reporter and in the test with HeLa RPL29-GFP reporter were 0.112 ± 0.044 and 0.254 ± 0.075, respectively.
The corresponding values for `CC1(C)S[C@@H]2[C@H](NC(=O)[C@H](NC(=O)N3CCN(S(C)(=O)=O)C3=O)c3ccccc3)C(=O)N2[C@H]1C(=O)O` [Mezlocillin Sodium] are 0.0591 ± 0.07, 0.9951 ± 0.0085, 0.123 ± 0.11 and 0.226 ± 0.041.
The corresponding values for `Cc1cnc(C(=O)O)c[n+]1[O-]` [Acipimox] are 0.0588 ± 0.074, 0.9966 ± 0.0059, 0.0729 ± 0.049 and 0.265 ± 0.092.
The corresponding values for `CN1CCOC(c2ccccc2)c2ccccc2C1` (stereo not drawn) [Nefopam HCl] are 0.0478 ± 0.045, 0.985 ± 0.025, 0.121 ± 0.094 and 0.219 ± 0.045.
Take `CC1CC(OC(=O)C(O)c2ccccc2)CC(C)(C)C1` (stereo not drawn) [Cyclandelate]: the values for the fraction in test [1] and in test [2] were 0.112 ± 0.14 and 0.984 ± 0.028, respectively. The “fraction … with nuclear” value with HeLa RPS2-YFP reporter was 0.15 ± 0.084; in the test on HeLa RPL29-GFP reporter it was 0.212 ± 0.073.
The corresponding values for `C[C@@H](O)[C@H]1C(=O)N2C(C(=O)[O-])=C(SC3Cn4cnc[n+]4C3)[C@H](C)[C@H]12` (stereo partly drawn) [Biapenem] are 0.07 ± 0.061, 0.998 ± 0.0035, 0.104 ± 0.074 and 0.193 ± 0.048.
Regarding `O=S(=O)(O)NC1CCCCC1` [Cyclamic  acid], the fraction worked out at 0.0725 ± 0.1 in test [1] and 0.992 ± 0.013 in test [2]. Besides, the “fraction … with nuclear” value in the test on HeLa RPS2-YFP reporter stood at 0.154 ± 0.12; in the test with HeLa RPL29-GFP reporter, 0.213 ± 0.055.
The corresponding values for `C[C@@H](NCCCc1cccc(C(F)(F)F)c1)c1cccc2ccccc12` [AMG-073 HCl (Cinacalcet hydrochloride)] are 0.116 ± 0.12, 0.9981 ± 0.0032, 0.107 ± 0.075 and 0.201 ± 0.054.
The corresponding values for `COc1cc2nc(N3CCN(C(=O)c4ccco4)CC3)nc(N)c2cc1OC` [Prazosin HCl] are 0.0997 ± 0.09, 0.9954 ± 0.008, 0.118 ± 0.074 and 0.214 ± 0.089.
As to `Cc1ncc(C[n+]2csc(CCO)c2C)c(N)n1` [Thiamine HCl (Vitamin B1)], the figures for the fraction in test [1] and in test [2] were 0.116 ± 0.17 and 0.982 ± 0.032, respectively. The “fraction … with nuclear” value came to 0.105 ± 0.088 in the test on HeLa RPS2-YFP reporter and 0.202 ± 0.076 with HeLa RPL29-GFP reporter.
The corresponding values for `COc1ccccc1N1CCN(CC(O)COc2cccc3ccccc23)CC1` (stereo not drawn) [Naftopidil (Flivas)] are 0.115 ± 0.18, 0.988 ± 0.022, 0.121 ± 0.055 and 0.341 ± 0.19.
The corresponding values for `CN(C)CCOC(C)(c1ccccc1)c1ccccn1` (stereo not drawn) [Doxylamine Succinate] are 0.0812 ± 0.12, 0.991 ± 0.016, 0.117 ± 0.099 and 0.207 ± 0.067.
The corresponding values for `COc1cc2nc(N(C)CCCNC(=O)C3CCCO3)nc(N)c2cc1OC` (stereo not drawn) [Alfuzosin hydrochloride (Uroxatral)] are 0.095 ± 0.11, 0.9982 ± 0.0031, 0.101 ± 0.053 and 0.2 ± 0.069.
With `Cc1onc(-c2ccccc2)c1C(=O)N[C@@H]1C(=O)N2[C@@H]1SC(C)(C)[C@@H]2C(=O)O` [Oxacillin sodium monohydrate], the fraction in test [1] stood at 0.121 ± 0.17; in test [2], 0.993 ± 0.012. Also, the entries for the “fraction … with nuclear” value with HeLa RPS2-YFP reporter and in the test on HeLa RPL29-GFP reporter were 0.132 ± 0.077 and 0.216 ± 0.099, respectively.
The corresponding values for `CCOC(=O)C1=C(C)NC(C)=C(C(=O)OC)C1c1cccc([N+](=O)[O-])c1` (stereo not drawn) [Nitrendipine] are 0.106 ± 0.11, 0.987 ± 0.023, 0.152 ± 0.037 and 0.269 ± 0.1.
The corresponding values for `C=CCOc1ccccc1OCC(O)CNC(C)C` (stereo not drawn) [Oxprenolol HCl] are 0.207 ± 0.3, 0.998 ± 0.0035, 0.173 ± 0.2 and 0.297 ± 0.23.
The corresponding values for `CCCCCCNC(=O)n1cc(F)c(=O)[nH]c1=O` [Carmofur] are 0.0622 ± 0.011, 0.9992 ± 0.0013, 0.0643 ± 0.05 and 0.252 ± 0.042.
In the case of `O=C(O)Cc1ccccc1Nc1c(Cl)cccc1Cl` [Diclofenac Diethylamine], the values for the fraction in test [1] and in test [2] were 0.0966 ± 0.14 and 0.979 ± 0.036, respectively. The “fraction … with nuclear” value with HeLa RPS2-YFP reporter is 0.113 ± 0.081; in the test with HeLa RPL29-GFP reporter it was 0.194 ± 0.066.
The corresponding values for `CCCC(=O)OCOC(=O)C1=C(C)NC(C)=C(C(=O)OC)C1c1cccc(Cl)c1Cl` (stereo not drawn) [Cleviprex (Clevidipine)] are 0.0942 ± 0.11, 0.9943 ± 0.0099, 0.115 ± 0.1 and 0.221 ± 0.079.
